For orientation: AC50 means the midpoint of the concentration-response curve, whichever way the signal moves. A lower AC50 goes with activity at low concentration.

The other results are listed elsewhere or left out. Further columns of the screen follow, without active or inactive calls. Compounds called inactive in the main read-out are mostly missing here. Words in brackets tell the shape of the fitted curve; partial curves, single points and poor fits give uncertain potencies.

The assay in a line: qHTS Assay for Lipid Storage Modulators in Drosophila S3 Cells.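 For cell number change: cells counted by Cell Tracker Red CMTPX staining in the red channel.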 To be noted: BODIPY lipid droplet fluorescence, 18-24 h; for cell number change: measured here: cell count max response, cells fed with added oleic acid. In a few lines: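 Laser-scanning cytometry quantifies lipid droplet accumulation (500–530 nm total intensity; droplet/cell object ratio) in oleic acid-fed (400 uM added) Drosophila S3 cells treated with a concentration series. 20 uM Triacsin C defined 100% inhibition.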
(Quantitative high-throughput screening tests each substance at several concentrations.)

Setting [1] is: measured here: cell number channel AC50, cells fed with added oleic acid.
The mark [2] stands for this setting: measured here: lipid fluorescence (Fed channel) AC50, cells fed with added oleic acid.

For the molecule `Cc1ccc(Cn2ccc(NC(=O)c3cc(-c4ccc(F)cc4)on3)n2)cc1`, the cell number change was -30.5%. In addition, the AC50 under setting [1] is 29.1 µM [falling, single point].
Turning to `Cc1cc(C=O)c(C)n1-c1ccc(Cl)c(C(=O)O)c1`, the cell number change was -15.7%. In addition, the AC50 under setting [2] is 0.058 µM [falling, single point].
In the case of `COCC(=O)NNC(=S)Nc1cccc(C)c1C`, the cell number change was -7.02%. Moreover, the AC50 under setting [1] is 0.082 µM [falling, full curve]. The AC50 under setting [2] is 0.517 µM [falling, full curve].
In the case of `CC(C)(C)c1ccc(OCCC(=O)OCC(=O)NCc2ccccc2)cc1`, the cell number change was -41.2%. For the same molecule, the AC50 under setting [1] was 29.1 µM [falling, single point]. Further, the half-maximal activity concentration (AC50) under setting [2] is 23.1 µM [falling, single point].
Regarding `N#CC1=C2SCN(Cc3ccccc3)CN2C(=O)CC1c1cccs1` (stereo not given), the cell number change came to 19%. For the same molecule, the AC50 under setting [2] was 0.651 µM [falling, full curve].
For the molecule `C=CCNC(=O)CN(Cc1ccccc1)S(=O)(=O)c1ccc(C)cc1`, the AC50 under setting [2] was 20.6 µM [falling, partial curve].
As for `CC(C)(C)C1(O)CC(C(F)(F)F)=NN1C(=O)Cc1ccc([N+](=O)[O-])cc1` (stereo not given), the cell number change was -49.7%. In addition, the AC50 under setting [1] is 20.6 µM [falling, single point]. The AC50 under setting [2] is 23.1 µM [falling, single point].
`CCSc1cc(N2CCCC2)nc(-c2ccc(C)cc2)n1`: the cell number change was 4.73%. Besides, the AC50 under setting [2] was 4.61 µM [rising, full curve, poor fit].
In the case of `CCCOc1ccc(-c2nnn(CC(=O)N3CCC(C)CC3)n2)cc1`, the cell number change stood at 58.5%. The AC50 under setting [1] was 2.91 µM [rising, partial curve]. Also, under setting [2], the AC50 is 0.164 µM [rising, full curve].
On to `CCCc1cc(=O)[nH]c(SCC(=O)c2cc(C)n(-c3cc(C)on3)c2C)n1`, for which the cell number change was found to be 9.62%.
`CCOc1ccc2nc(NCCO)[nH]c2c1`: the cell number change is -11.9%. The AC50 under setting [1] was 7.31 µM [falling, partial curve, poor fit]. In addition, the AC50 under setting [2] was 2.91 µM [falling, partial curve, poor fit].
With `O=C(CCCN=C1NS(=O)(=O)c2ccccc21)OCC(=O)c1ccc(F)c(F)c1`, the cell number change is -18.2%. Moreover, the AC50 under setting [1] was 1.64 µM [falling, full curve, poor fit].
Consider `Cc1cc(C)c(C)c(OCCn2ccnc2)c1`, for which the cell number change is -17.7%.
For the molecule `COCCOC(=O)C1=C(C)NC(=O)N(C(C)=O)C1c1ccc(Cl)cc1` (stereo not given), the cell number change came out at 30.2%.
On to `Cc1ccc(C)c(N2CCN(CCCNC(=O)Cn3c(=O)c4cccn4c4cccnc43)CC2)c1`, for which the cell number change was -0.612%. Under setting [2], the AC50 is 18.4 µM [rising, partial curve].
In the case of `O=C(O)C1CC(=O)N(Cc2cccs2)C1` (stereo not given), the cell number change was -22.5%.
Regarding `N#Cc1c(NC(=O)C2CC(Cl)=CCC2C(=O)O)sc2c1CCCC2` (stereo not given), the cell number change is 2.03%. Moreover, the AC50 under setting [1] was 0.58 µM [falling, single point]. For the same molecule, the concentration at half-maximal activity (AC50) under setting [2] is 0.366 µM [falling, single point].
With `COc1cccc(/C=N\NC(=O)c2ccc(Cn3cc(Br)c([N+](=O)[O-])n3)o2)c1O`, the cell number change was -41%. In addition, the AC50 under setting [1] is 29.1 µM [falling, partial curve]. The AC50 under setting [2] was 20.6 µM [falling, partial curve, poor fit].
As to `N#CC1=C(N)N(c2ccc(Oc3ccccc3)cc2)C(=O)C1`, the cell number change was found to be 48.9%. For the same molecule, the AC50 under setting [1] was 8.2 µM [rising, single point]. Besides, the AC50 under setting [2] was 2.31 µM [rising, full curve].
In the case of `CCN(c1ccc(C)c(C)c1)S(=O)(=O)c1ccc2c(c1)CCN2C(=O)CCC(=O)O`, the cell number change amounted to 1.54%. Moreover, the AC50 under setting [1] was 2.91 µM [falling, partial curve, poor fit].
Turning to `COc1ccc(CCNC(=O)c2ccc(-c3ccc([N+](=O)[O-])cc3Cl)o2)cc1OC`, the cell number change was determined as 14.3%. Further, the AC50 under setting [2] is 20.6 µM [falling, partial curve].
For the molecule `O=C(Nc1ccccc1Cl)c1cc[n+](Cc2ccc([N+](=O)[O-])cc2)cc1`, the cell number change was -5.97%. Under setting [2], the AC50 was 0.00731 µM [falling, full curve, poor fit].
On to `CCC(=O)Nc1nc(C)cc(SCC(=O)OC)n1`, for which the cell number change amounted to 15.8%. The AC50 under setting [2] is 23.1 µM [falling, partial curve].
On to `CCC(=O)N1CCN=C1SCc1cccc(C(F)(F)F)c1`, for which the cell number change stood at 0.59%.
Turning to `CCC(=O)c1cccc2c1N=CC1=C(CC(C)(C)CC1=O)N2`, the cell number change stood at 9.53%. Also, the AC50 under setting [2] was 0.164 µM [rising, partial curve, poor fit].
Turning to `Cn1c(/C(C#N)=C/c2ccncc2)nc2ccccc21`, the cell number change is -8.05%. The AC50 under setting [2] was 0.0058 µM [falling, full curve, poor fit].
Regarding `Cc1ccc(S(=O)(=O)CCC(=O)NCc2ccccc2Cl)cc1`, the cell number change was -13.9%.
For `COC(=O)C(CCSC)NS(=O)(=O)c1ccc(Cl)cc1` (stereo not given), the cell number change was determined as 31%. Moreover, the AC50 under setting [1] was 29.1 µM [rising, single point]. For the same molecule, the AC50 under setting [2] is 29.1 µM [rising, single point].
For `COc1cc([C@@H]2c3cc4c(cc3[C@@H](O)[C@H]3COC(=O)[C@H]23)OCO4)cc(OC)c1O[Si](C)(C)C(C)(C)C`, the cell number change is -19.2%.
`CCN(C(=O)c1ccc(S(=O)(=O)N(C)C)cc1)C(C)C(=O)Nc1ccc(C)cc1` (stereo not given): the cell number change is -24.6%. The AC50 under setting [1] was 3.26 µM [falling, full curve, poor fit]. Moreover, under setting [2], the AC50 is 6.51 µM [falling, single point].
In the case of `CN(CCOc1ccc(Cl)cc1)C(=O)C1CCN(C(=O)c2ccc(F)cc2)CC1`, the cell number change came out at 23.8%. In addition, the AC50 under setting [2] is 2.91 µM [rising, single point].
Turning to `CCOc1cc(N2CCOCC2)c(OCC)cc1NC(=O)c1cc(C)nc2ccccc12`, the cell number change was -20.6%. Moreover, the AC50 under setting [1] is 0.00517 µM [falling, full curve, poor fit]. In addition, the AC50 under setting [2] was 0.00411 µM [falling, full curve, poor fit].
Turning to `O=C(CCS(=O)(=O)Cc1ccccc1)NCCc1ccccc1`, the cell number change was -1.36%. For the same molecule, under setting [2], the AC50 is 6.51 µM [rising, partial curve, poor fit].
Turning to `Cc1ccc(NC(=O)COC(=O)c2ccc(Cl)cc2)cc1S(=O)(=O)N(C)C`, the AC50 was 6.51 µM [falling, single point] under setting [1] and 1.46 µM [falling, single point] under setting [2].
Regarding `COCCn1c(CN2CCN(c3ccc(F)cc3)CC2)nc2c1c(=O)n(C)c(=O)n2C`, the cell number change is -29.8%. Moreover, under setting [2], the AC50 was 25.9 µM [falling, partial curve, poor fit].
For the molecule `Cc1oc(-c2ccc(Cl)cc2)nc1CN1CCCC(C(=O)NCCCN2CCOCC2)C1` (stereo not given), the cell number change is -7.49%. For the same molecule, the half-maximal activity concentration (AC50) under setting [1] was 1.16 µM [falling, partial curve].

These data come from PubChem BioAssay AID2685 (National Center for Advancing Translational Sciences (NCATS), 2010).
